Assay results from the supplement of paper PMC10849652.
The other results are listed elsewhere or left out.

How the values were obtained:
Assay in all cases: log2 fold change, soluble protein after heating vs DMSO (PISA); higher = thermal stabilisation; K562 lysate, 10 uM; active = over 0.2 and 3.5 SD of the protein, either way, in both replicates (recomputed)
erlotinib = compound: C#Cc1cccc(Nc2ncnc3cc(OCCOC)c(OCCOC)cc23)c1 [erlotinib]
Outline: (§1)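 Thermal stability, expressed as log-two fold change relative to solvent controls, is given from duplicates. Crude K562 extract in PBS pH 7.4 with 1 mM MgCl2, at 1 mg/mL protein, was treated with 10 μM compound for 30 min and heated in aliquots for 3 min across 48°C-58°C. After pooling, adjustment to 0.5% NP-40 at 4°C and centrifugation at 21,000xg for 90 min, supernatant protein was measured by TMTpro 16plex LC-MS/MS with channel sums equalised.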

[1] = compound: C/C(=N\NC(=O)C1=CC(=CC=C1)S(=O)(=O)N2CCOCC2)/C3=C(C=CC(=C3)Cl)O
Outline: as §1

[2] = compound: C1=CC(=CC=C1C2=NC3=C(N2)C=C(C=C3)C(=O)N)OC4=CC=C(C=C4)Cl
Outline: as §1

[3] = compound: C1=CC2=C(C=CC(=C2)/C=C\3/C(=O)NC(=NCC4=CC=CS4)S3)N=C1
Outline: as §1

[4] = compound: C1=CC2=NC=CN=C2C=C1/C=C/3\C(=O)NC(=O)S3
Outline: as §1

[5] = compound: C1=CC=C(C=C1)C2=NC(=C(N2)C3=CC=NC=C3)C4=CC(=C(C=C4)Cl)O
Outline: as §1

[6] = compound: C1=CC=C2C(=C1)C3=NNC4=CC=CC(=C43)C2=O
Outline: as §1

[7] = compound: C1CCN(C1)C(=O)NC2=CC=CC(=C2)NC3=NC=C(C(=N3)NCCC4=CN=CN4)Br
Outline: as §1

[8] = compound: C1CN(CCC1(CC2=CC=C(C=C2)Cl)N)C3=NC=NC4=C3C=CN4
Outline: as §1

IRAK-1-4 Inhibitor I = compound: C1COCCN1CCN2C3=CC=CC=C3N=C2NC(=O)C4=CC(=CC=C4)[N+](=O)[O-] [IRAK-1-4 Inhibitor I]
Outline: as §1

Measured: log2 fold change

PRPF18 (UniProt Q99633)
inactive: erlotinib -0.048 | [1] 0.049 | [2] 0.081 | [3] 0.024 | [4] -0.053 | [5] 0.023 | [6] -0.094 | [7] 0.018 | [8] 0.067 | IRAK-1-4 Inhibitor I -0.004

PPP2R5C isoform 4 (UniProt Q13362)
inactive: erlotinib 0.025 | [1] -0.048 | [2] -0.054 | [3] -0.012 | [4] -0.009 | [5] 0.044 | [6] -0.01 | [7] 0.046 | [8] 0.08 | IRAK-1-4 Inhibitor I 0.002

PPIG (UniProt Q13427)
inactive: erlotinib -0.007 | [1] -0.011 | [2] 0.082 | [3] -0.007 | [4] -0.047 | [5] -0.064 | [6] -0.05 | [7] -0.005 | [8] 0.047 | IRAK-1-4 Inhibitor I -0.05

PRDX5 (UniProt P30044)
inactive: erlotinib -0.003 | [1] 0.028 | [2] -0.004 | [3] -0.014 | [4] -0.022 | [5] -0.005 | [6] -0.004 | [7] 0.026 | [8] 0.029 | IRAK-1-4 Inhibitor I 0.015

PPP2R5D (UniProt Q14738)
inactive: erlotinib 0.033 | [1] 0.042 | [2] 0.004 | [3] 0 | [4] -0.018 | [5] -0.009 | [6] 0.007 | [7] 0.031 | [8] 0.013 | IRAK-1-4 Inhibitor I 0.006

PPP1R35 (UniProt Q8TAP8)
inactive: erlotinib 0.038 | [1] -0.02 | [2] 0.105 | [3] -0.012 | [4] 0.018 | [5] -0.023 | [6] 0.081 | [7] -0.015 | [8] 0.135 | IRAK-1-4 Inhibitor I 0.275

PPP1CA (UniProt P62136)
inactive: erlotinib 0.007 | [1] 0.045 | [2] 0.03 | [3] -0.041 | [4] -0.004 | [5] 0.031 | [6] 0 | [7] -0.024 | [8] 0.007 | IRAK-1-4 Inhibitor I -0.001

PRDX6 (UniProt P30041)
inactive: erlotinib -0.035 | [1] 0.015 | [2] -0.001 | [3] -0.023 | [4] 0.014 | [5] -0.004 | [6] 0.01 | [7] 0.01 | [8] 0.004 | IRAK-1-4 Inhibitor I -0.002

PPP2R5C isoform 2 (UniProt Q13362)
inactive: erlotinib 0.003 | [1] 0.044 | [2] 0.024 | [3] -0.046 | [4] 0.186 | [5] 0.024 | [6] 0.013 | IRAK-1-4 Inhibitor I 0.052

PRDM2 (UniProt Q13029)
inactive: erlotinib 0.016 | [1] -0.028 | [2] 0.035 | [3] -0.019 | [4] 0.124 | [5] -0.058 | [6] 0.03 | IRAK-1-4 Inhibitor I -0.056

PRG4 (UniProt Q92954)
inactive: [4] -0.296 | [5] -0.027 | IRAK-1-4 Inhibitor I 0.057

PPP6R2 isoform 5 (UniProt O75170)
inactive: erlotinib 0.025 | [1] -0.011 | [2] -0.061 | [3] -0.021 | [4] 0.006 | [5] -0.017 | [6] 0.024 | [7] -0.027 | [8] 0.059 | IRAK-1-4 Inhibitor I -0.005

PPME1 (UniProt Q9Y570)
inactive: erlotinib 0.129 | [2] 0.003 | [4] -0.09 | [7] -0.025 | [8] -0.033

PPP6R3 isoform 6 (UniProt Q5H9R7)
inactive: [5] -0.038 | IRAK-1-4 Inhibitor I -0.051

PROSER1 (UniProt Q86XN7)
inactive: erlotinib 0.162 | [1] -0.445 | [2] 0.308 | [3] -0.065 | [4] 0.053 | [5] 0.03 | [6] -0.06 | IRAK-1-4 Inhibitor I 0.016

PRKX (UniProt P51817)
inactive: [1] 0.091 | [3] 0.523 | [4] 0.021 | [5] 0.04 | [6] -0.338 | [7] 0.433 | [8] 0.372 | IRAK-1-4 Inhibitor I 0.01

PPP1R7 isoform 2 (UniProt Q15435)
inactive: [5] 0.071 | IRAK-1-4 Inhibitor I 0.063

PRELID1 (UniProt Q9Y255)
inactive: [1] -0.095 | [3] -0.136 | [4] 0.044 | [5] -0.076 | [6] -0.117 | IRAK-1-4 Inhibitor I -0.015

PPP6R3 isoform 2 (UniProt Q5H9R7)
inactive: erlotinib -0.04 | [2] 0.044 | [5] 0.02 | IRAK-1-4 Inhibitor I -0.032

PRADC1 (UniProt Q9BSG0)
inactive: erlotinib -0.016 | [2] 0.027 | [4] 0.018 | [5] 0 | IRAK-1-4 Inhibitor I 0.017

PPP1R3D (UniProt O95685)
inactive: erlotinib -0.082 | [1] 0.014 | [2] -0.026 | [3] -0.062 | [4] -0.055 | [5] 0.003 | [6] -0.007 | IRAK-1-4 Inhibitor I -0.019

PRDX4 (UniProt Q13162)
inactive: erlotinib -0.057 | [1] -0.05 | [2] 0.032 | [3] -0.045 | [4] 0.009 | [5] -0.041 | [6] 0.003 | [7] -0.003 | [8] -0.003 | IRAK-1-4 Inhibitor I -0.008

PPIH (UniProt O43447)
inactive: erlotinib -0.02 | [1] -0.1 | [2] 0.01 | [3] -0.008 | [4] -0.028 | [5] 0 | [6] 0.003 | [7] 0.004 | [8] 0.008 | IRAK-1-4 Inhibitor I -0.011

PRNP (UniProt P04156)
inactive: erlotinib 0.277 | [2] -0.09 | [4] -0.126 | [5] 0.056 | IRAK-1-4 Inhibitor I -0.083

PRMT2 (UniProt P55345)
inactive: [1] -0.026 | [3] -0.075 | [4] -0.087 | [5] -0.174 | [6] 0.288 | [7] -0.076 | [8] -0.034 | IRAK-1-4 Inhibitor I 0.018

PRICKLE3 (UniProt O43900)
inactive: [4] 0.132 | [5] -0.345 | IRAK-1-4 Inhibitor I 0.181

PPP1R3E (UniProt Q9H7J1)
inactive: erlotinib 0.005 | [2] 0.078

Two records drawn at random from the list so far, as already listed:
PRMT2 (UniProt P55345)
inactive: [1] -0.026 | [3] -0.075 | [4] -0.087 | [5] -0.174 | [6] 0.288 | [7] -0.076 | [8] -0.034 | IRAK-1-4 Inhibitor I 0.018

PRICKLE3 (UniProt O43900)
inactive: [4] 0.132 | [5] -0.345 | IRAK-1-4 Inhibitor I 0.181

The results go on.

PRG2 (UniProt P13727)
inactive: [7] -0.008 | [8] 0.093

PPM1B isoform 2 (UniProt O75688)
inactive: [4] -0.021 | [5] -0.057 | [7] -0.084 | [8] 0.154 | IRAK-1-4 Inhibitor I -0.019

PPP1R11 (UniProt O60927)
inactive: erlotinib -0.046 | [2] 0.015 | [4] 0.01 | [5] 0.004 | [7] 0 | [8] -0.03 | IRAK-1-4 Inhibitor I 0.132

PRPF40A isoform 3 (UniProt O75400)
inactive: erlotinib 0.016 | [2] 0.045 | [5] -0.039 | [7] -0.091 | [8] -0.039 | IRAK-1-4 Inhibitor I -0.003

PPP1R14C (UniProt Q8TAE6)
inactive: [1] 0.018 | [3] -0.092 | [4] -0.05 | [5] 0.001 | [6] 0.021 | [7] 0.052 | [8] -0.02 | IRAK-1-4 Inhibitor I -0.014

PRDM15 (UniProt P57071)
inactive: [5] -0.212 | IRAK-1-4 Inhibitor I 0.026

PPP2CB (UniProt E5RHC1)
inactive: [4] -0.102 | [5] 0.096 | IRAK-1-4 Inhibitor I -0.058

PPL (UniProt O60437)
inactive: [4] 0.506 | [7] -0.058 | [8] 0.009

PROSER3 (UniProt Q2NL68)
inactive: erlotinib -0.102 | [1] 0 | [2] 0.067 | [3] 0.187 | [6] -0.122

PPP1R12C isoform 3 (UniProt Q9BZL4)
inactive: [4] -0.012 | [5] 0.095 | IRAK-1-4 Inhibitor I 0.069

PPP1R14A, A0A0B4J2A3
inactive: erlotinib -0.212 | [2] 0.122

PPTC7 (UniProt Q8NI37)
inactive: [1] 0.203 | [3] 0.046 | [5] -0.019 | [6] -0.18 | IRAK-1-4 Inhibitor I 0.019

PPP2R2D (UniProt Q66LE6)
inactive: erlotinib 0.019 | [1] -0.043 | [2] 0.053 | [3] 0.059 | [4] -0.042 | [5] -0.09 | [6] -0.159 | IRAK-1-4 Inhibitor I 0

PPP2R3B (UniProt Q9Y5P8)
inactive: [4] -0.073
